Series [1] can be described thus: general procedure: Fmoc solid-phase peptide synthesis; Sasrin resin; HBTU in NMP (Fmoc); preformed symmetrical anhydrides in DMF (Boc). The settings on record: whole synthesis, scale 1 mmol.
Series [2] in a line: solid-phase peptide synthesis. The settings on record: whole synthesis, scale 0.5 mmol.
Series [3] in a line: Fmoc solid-phase peptide synthesis; 4-(2',4'-dimethoxyphenyl-Fmoc-aminomethyl)-phenoxy resin (Novabiochem, 0.53 mmol/g); 4-methyl BHA resin (0.72 mmol/g); S; HBTU in NMP (Fmoc); preformed symmetrical anhydrides in DMF (Boc). The settings on record: whole synthesis, scale 0.25 mmol.

For the substance “3-((3-(1-Adoc-4-imidazolyl)propionyl)-D-Trp-Ala.psi.(CH2 NH)Trp-D-Phe-NH)propylamine”, the isolated mass in series [1] is 73.53 mg.
Take “(2S)-((3-(4-Imidazolyl)propionyl)-D-Trp-Ala.psi.(CH2 NH)Trp-D-Phe-NH)-6-aminohexanol”: the isolated mass in series [1] came out at 28.54 mg.
“H-His-D-Trp-Ala-Trp-D-Phe.psi.(CH2 NH)Lys-NH2”: the isolated mass in series [2] is 20.6 mg.
In series [3], “H-His-D-Trp.psi.(CH2 NH)Ala-Trp-D-Phe-Lys-NH2” registered an isolated mass of 6.55 mg.

Source of the values: US5854211A (Novo Nordisk A/S, priority 1993, dated 1998).
